This note sets out measurements from PubChem BioAssay AID2685 (National Center for Advancing Translational Sciences (NCATS), 2010).

The assay is described as follows: qHTS Assay for Lipid Storage Modulators in Drosophila S3 Cells.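 As to cell number change: cells counted by Cell Tracker Red CMTPX staining in the red channel.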 The note with it: BODIPY lipid droplet fluorescence, 18-24 h; for cell number change: measured here: cell count max response, cells fed with added oleic acid. Put shortly: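 Laser-scanning cytometry quantifies lipid droplet accumulation (500–530 nm total intensity; droplet/cell object ratio) in oleic acid-fed (400 uM added) Drosophila S3 cells treated with a concentration series. 20 uM Triacsin C defined 100% inhibition.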

[1] abbreviates: measured here: cell number channel AC50, cells fed with added oleic acid.
[2] abbreviates: measured here: lipid fluorescence (Fed channel) AC50, cells fed with added oleic acid.

The structures appear in SMILES notation. This is one part of the list. Further columns of the screen follow, without active or inactive calls. Most of these compounds were active or inconclusive in the main read-out, so they are no random draw. Potencies come from curve fits of mixed quality, noted in brackets.

Take `CCOC(=O)N1CCC2(CC1)CC(=O)c1c(ccc3oc(C(=O)O)c(C)c13)O2`: the cell number change was -93.8%. Under setting [1], the concentration at half-maximal activity (AC50) was 29.1 µM [falling, single point]. Further, the half-maximal activity concentration (AC50) under setting [2] was 29.1 µM [falling, single point].
On to `COc1cc(=O)[nH]c(SCc2c(F)c(F)c(F)c(F)c2F)n1`, for which the cell number change was -25.2%. Under setting [2], the half-maximal activity concentration (AC50) was 23.1 µM [rising, single point].
As to `Cc1cccc(COCC(Cc2ccccc2)N2CCN(C(=O)c3cc(Cl)cc(Cl)c3)CCC2=O)c1` (stereo unspecified), the cell number change is -0.234%. Further, the AC50 under setting [2] was 8.2 µM [rising, partial curve].
In the case of `CCOc1ccc(-c2nc(C#N)c(NC3CC3)o2)cc1`, the concentration at half-maximal activity (AC50) is, setting by setting: under setting [1], 0.259 µM [rising, full curve]; under setting [2], 0.92 µM [rising, full curve].
`Clc1ccc(Cn2ccc(-c3ccc4c(c3)OCO4)n2)cc1Cl`: the cell number change came out at 16.9%. Besides, the AC50 under setting [2] was 20.6 µM [rising, single point].
Regarding `COCC1CCCCN1Cc1cn[nH]c1-c1ccc(OC)cc1OC` (stereo unspecified), the cell number change came out at 11.6%. For the same compound, under setting [2], the AC50 was 32.6 µM [rising, partial curve, poor fit].
As to `CCCCNc1c(-c2ccc(OC)c(Sc3ccc(OC)cc3)c2)nc2ccccn12`, the cell number change is -44%. Moreover, the AC50 under setting [1] is 29.1 µM [falling, single point]. Also, the AC50 under setting [2] is 20.6 µM [falling, single point].
Regarding `CCN1C(=O)[C@H]2[C@@H](c3ccc(OC)cc3)N3C(=O)CN(Cc4ccccc4)C(=O)[C@@]3(C)[C@H]2C1=O`, the cell number change amounted to 6.29%. Under setting [2], the AC50 is 29.1 µM [rising, single point].
Take `CC(=O)OC1CC(c2cc(C(C)(C)C)c(O)c(C(C)(C)C)c2)=NO1` (stereo unspecified): the cell number change is 20.7%. Besides, the concentration at half-maximal activity (AC50) under setting [2] is 1.64 µM [rising, partial curve].
As for `NC(=O)c1cccnc1Nc1cccc(F)c1`, the cell number change came out at 5.84%. Moreover, the AC50 under setting [2] is 0.206 µM [rising, full curve, poor fit].
As for `COc1ccc(NC(=O)CSc2nc3ccccc3c(=O)n2C)cc1`, the cell number change is -12.8%.
As for `CC(=O)c1ccc(NC(=O)C2CCCN(C(=O)c3ccc(Cl)cc3)C2)cc1` (stereo unspecified), the cell number change is 22.8%.
`COc1cc(/C=C(\NC(=O)c2ccccc2)C(=O)NC(C(=O)O)c2ccccc2)cc(OC)c1OC` (stereo unspecified): the cell number change came to 25.2%. The half-maximal activity concentration (AC50) under setting [2] is 29.1 µM [rising, single point].
Take `Cc1occc1-c1nnc(SCCNCCO)o1`: the cell number change was -35%. For the same compound, under setting [1], the AC50 was 2.59 µM [falling, full curve, poor fit]. The concentration at half-maximal activity (AC50) under setting [2] was 2.91 µM [falling, full curve].
Take `Cc1cc(OCc2cc(C(=O)N(C)Cc3nonc3C)no2)cc(C)c1Cl`: the cell number change stood at 12.8%. The AC50 under setting [2] was 18.4 µM [rising, partial curve].
For the compound `Cc1ccc(OCCNC(=O)C2CC(=O)N(c3ccc(C)cc3)C2)cc1` (stereo unspecified), the cell number change was found to be 75.3%. The AC50 under setting [1] was 14.6 µM [rising, partial curve, poor fit].
Consider `Nc1nc2nccc(-c3ccccn3)n2n1`, for which the cell number change was -24%.
Consider `COc1cc(/C=C(\C#N)c2nc3ccccc3[nH]2)cc(Br)c1OCc1ccc(F)cc1`, for which the AC50 runs as follows: under setting [1], 4.11 µM [falling, partial curve, poor fit]; under setting [2], 4.61 µM [falling, full curve, poor fit].
As for `COc1cc2c(cc1OC)CN(C(=O)CCNS(=O)(=O)c1ccc(Br)cc1)CC2`, the cell number change was found to be 45.8%. Besides, under setting [1], the concentration at half-maximal activity (AC50) is 25.9 µM [rising, single point]. For the same compound, the AC50 under setting [2] is 16.4 µM [rising, partial curve].
Turning to `Nc1nncn1C(=O)c1ccccc1Cl`, the cell number change is -3.01%. Also, the AC50 under setting [1] is 0.103 µM [falling, full curve, poor fit]. Also, the half-maximal activity concentration (AC50) under setting [2] was 1.64 µM [falling, partial curve].
With `NS(=O)(=O)c1ccc(CCn2c(=S)[nH]c3ccc(F)cc3c2=O)cc1`, the cell number change came out at 4.09%.
As to `Cc1ccc(-c2nc(P(=O)(c3ccccc3)c3ccccc3)c(N3CCOCC3)o2)cc1`, the cell number change was -1.73%.
Take `CC(C)(C)OC(=O)NN=C(c1ccc(O)cc1)c1ccc(O)cc1`: the cell number change is 12.3%. Besides, under setting [2], the half-maximal activity concentration (AC50) is 25.9 µM [rising, single point].
For the compound `CCCc1nnc(NC(=O)CC(=O)Nc2ccccc2C(=O)O)s1`, under setting [2], the concentration at half-maximal activity (AC50) was 0.092 µM [rising, single point].
As to `C=C(C)CSCc1nc2ccccc2[nH]1`, the cell number change is 2.21%. Under setting [2], the AC50 is 8.2 µM [falling, partial curve].
With `Cn1cc(Cl)c(C(=O)NC2CCCCCC2)n1`, the cell number change stood at 108%. In addition, under setting [1], the AC50 was 23.1 µM [rising, partial curve]. Besides, the AC50 under setting [2] is 20.6 µM [rising, partial curve, poor fit].
For the compound `CC(C)(C)c1cn(-c2ccccc2)c(=S)[nH]1`, the cell number change turned out to be 13.7%. In addition, the AC50 under setting [2] was 20.6 µM [rising, partial curve].
As for `Cc1cc(NS(=O)(=O)c2cccs2)no1`, the cell number change stood at 0.623%. In addition, the AC50 under setting [2] was 20.6 µM [falling, partial curve].
Turning to `COc1cccc(/C(O)=C2/C(=O)C(=O)N(CCN(C)C)C2c2ccccn2)c1` (stereo unspecified), the cell number change is -28.8%. In addition, the half-maximal activity concentration (AC50) under setting [1] was 0.00731 µM [falling, full curve, poor fit]. Under setting [2], the half-maximal activity concentration (AC50) was 0.366 µM [falling, full curve].
Take `CCC(C(=O)Nc1nccs1)c1ccccc1` (stereo unspecified): the cell number change was -11.2%.
For `O=C(O)c1ccc(C(=O)Nc2cccc(NC(=O)C3CCCO3)c2)cc1` (stereo unspecified), the cell number change is -65.4%. Further, the AC50 under setting [1] is 29.1 µM [falling, single point]. The AC50 under setting [2] was 0.116 µM [falling, full curve].
Consider `CCOC(=O)C[N+](CC)(CC)CC#Cc1ccccc1`, for which the cell number change came to 9.21%. In addition, the half-maximal activity concentration (AC50) under setting [1] is 0.146 µM [falling, full curve]. Under setting [2], the concentration at half-maximal activity (AC50) was 0.146 µM [falling, full curve, poor fit].
As to `O=C(NC(=S)Nc1cc(Cl)ccc1O)c1cccc(Br)c1`, the cell number change is -41%. Besides, the AC50 under setting [1] is 13 µM [falling, single point]. The AC50 under setting [2] is 20.6 µM [falling, partial curve].
`COc1ccc2nc(SCC(=O)NCc3ccc(F)cc3)[nH]c2c1`: the cell number change worked out at 14.1%.
For `O=C(CCCN1C(=O)/C(=C/c2ccccc2Cl)SC1=S)NNC(=O)c1ccccc1`, the cell number change is -11.4%. The AC50 under setting [2] was 32.6 µM [falling, single point].
`COC(=O)c1ccc(NC(=O)CN(C2CCCCC2)S(C)(=O)=O)cc1`: the cell number change was found to be 8.72%.
Regarding `C=CCn1c(SCc2cccc(OC)c2)nnc1-c1ccncc1`, the cell number change was -2.38%. Besides, the AC50 under setting [2] is 29.1 µM [falling, single point].
On to `Cc1cccn2c(=O)nc(SCC(=O)N3CCC(C)CC3)nc12`, for which the cell number change worked out at 29.7%.
